Results on one molecule are retold here after doi:10.1101/2023.04.03.535356.

By UniProt entry, the sequences of proteins in these tests, tags left out. Where a name states a change or a piece, a line headed by the entry shows the natural chain unless it says otherwise.
UniProt Q8VCW4: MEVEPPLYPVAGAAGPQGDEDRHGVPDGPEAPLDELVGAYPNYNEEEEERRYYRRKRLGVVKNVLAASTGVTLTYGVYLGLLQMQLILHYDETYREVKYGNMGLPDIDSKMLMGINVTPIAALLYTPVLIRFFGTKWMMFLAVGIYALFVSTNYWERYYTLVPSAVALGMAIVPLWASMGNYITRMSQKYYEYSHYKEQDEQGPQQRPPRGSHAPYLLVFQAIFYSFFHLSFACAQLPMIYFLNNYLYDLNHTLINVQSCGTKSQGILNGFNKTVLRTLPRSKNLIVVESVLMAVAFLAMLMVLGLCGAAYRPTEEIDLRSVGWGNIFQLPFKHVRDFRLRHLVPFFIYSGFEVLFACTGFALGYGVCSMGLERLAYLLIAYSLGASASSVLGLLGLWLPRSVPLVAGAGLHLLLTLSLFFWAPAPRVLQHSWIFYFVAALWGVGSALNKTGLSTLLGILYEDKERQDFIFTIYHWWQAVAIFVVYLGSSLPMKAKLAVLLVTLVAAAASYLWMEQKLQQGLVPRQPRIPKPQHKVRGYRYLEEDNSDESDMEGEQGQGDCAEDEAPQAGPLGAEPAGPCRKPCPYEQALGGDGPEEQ

Results are given in words; binding and its absence hold for the method and conditions named. Binding seen in cells or lysates may run through a third protein. Binding can be weak; no strength is given.

This assay concerns the target Flag-tagged Unc93b1 allele that includes the D34A mutation (UniProt Q8VCW4). Nature of the assay: co-IP.

B1: endogenous Arl8b (protein, UniProt Q9CQW2 1-186)
chain: MLALISRLLDWFRSLFWKEEMELTLVGLQYSGKTTFVNVIASGQFSEDMIPTVGFNMRKVTKGNVTIKIWDIGGQPRFRSMWERYCRGVNAIVYMIDAADREKIEASRNELHNLLDKPQLQGIPVLVLGNKRDLPNALDEKQLIEKMNLSAIQDREICCYSISCKEKDNIDITLQWLIQHSKSRRS
Consider B1, for which the binding entry is listed as “binds”.
